Experimental data: PubChem BioAssay AID1259275 (Sanger Institute, 2017)
Purpose: 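Kinase and colorectal cancer genes needed for cancer cell survival, with or without drugs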 (primary screen). System: COLO320HSR human colorectal cancer cells. Knock-down reagent: siRNA pool against human genes. Challenge: anchor drug added one day after transfection: BYL719 at 1 µM, cetuximab at 5 µg/ml or trametinib at 10 nM; DMSO as vehicle arm. Measurement: 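Viability averaged over replicates as a fraction of the non-targeting pool, a robust z-score for knock-down alone, and synergy scores with BYL719 (1 µM), cetuximab (5 µg/ml) or trametinib (10 nM)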. Direction: robust z-score, siRNA alone: higher = more viable cells; strongly negative means essential; viability, knock-down alone (DMSO): higher = more viable cells. Hit rule: 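Essential means the knock-down by itself gives a robust z-score lower than -3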. Meaning of the calls: active = essential (siRNA alone); inactive = no change (siRNA alone).
Shown is one part, drawn at random, of 794 reagents tested. Over the whole deposit, 13 (1.6%) were called active. 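Calls mark knock-downs lethal by themselves, not drug synergy; drugs went in a day after transfection, with DMSO as vehicle.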 Unmarked entries are inactive. No viability above 1 is reported: the scale is capped. Not all columns of the deposit are shown. The record does not give: the amount of reagent, the time to read-out.

Knock-down of PRKAG3 resulted in: robust z-score, siRNA alone -1.04; viability, knock-down alone (DMSO) (fraction of control) = 0.84. Knock-down of ETNK1 gave: robust z-score, siRNA alone 0.726; viability, knock-down alone (DMSO) (fraction of control) = 1. For IPMK the deposit lists robust z-score, siRNA alone -0.333; viability, knock-down alone (DMSO) (fraction of control) = 0.904. For EIF2AK3, the values are robust z-score, siRNA alone -0.479; viability, knock-down alone (DMSO) (fraction of control) = 0.891. After knock-down of GRK4, the record shows robust z-score, siRNA alone 0.251; viability, knock-down alone (DMSO) (fraction of control) = 0.957. For EPHA10, the entry reads robust z-score, siRNA alone -1.31; viability, knock-down alone (DMSO) (fraction of control) = 0.816.

DBF4 showed robust z-score, siRNA alone 0.726; viability, knock-down alone (DMSO) (fraction of control) = 1. With knock-down of INSR the results were robust z-score, siRNA alone 0.474; viability, knock-down alone (DMSO) (fraction of control) = 0.977. Silencing of MAPKAPK2 resulted in: robust z-score, siRNA alone 0.726; viability, knock-down alone (DMSO) (fraction of control) = 1. MAST4 showed robust z-score, siRNA alone 0.726; viability, knock-down alone (DMSO) (fraction of control) = 1. ATR gave robust z-score, siRNA alone 0.403; viability, knock-down alone (DMSO) (fraction of control) = 0.971. For PDIK1L, the entry reads robust z-score, siRNA alone 0.726; viability, knock-down alone (DMSO) (fraction of control) = 1.

Against MAPKAPK3 the deposit lists robust z-score, siRNA alone 0.726; viability, knock-down alone (DMSO) (fraction of control) = 1. Depletion of WNK3 gave: robust z-score, siRNA alone 0.726; viability, knock-down alone (DMSO) (fraction of control) = 1. Knock-down of ACVR1 resulted in: robust z-score, siRNA alone -0.34; viability, knock-down alone (DMSO) (fraction of control) = 0.904. Against BCOR, the values are robust z-score, siRNA alone 0.726; viability, knock-down alone (DMSO) (fraction of control) = 1. After knock-down of EPHB2, the screen gave robust z-score, siRNA alone 0.726; viability, knock-down alone (DMSO) (fraction of control) = 1. Knock-down of EFNA3 came out at: robust z-score, siRNA alone -1.1; viability, knock-down alone (DMSO) (fraction of control) = 0.835.

CAMK2G showed robust z-score, siRNA alone 0.726; viability, knock-down alone (DMSO) (fraction of control) = 1. For TK2, the values are robust z-score, siRNA alone 0.708; viability, knock-down alone (DMSO) (fraction of control) = 0.998. For ATM, the values are robust z-score, siRNA alone 0.191; viability, knock-down alone (DMSO) (fraction of control) = 0.952. With knock-down of DGKI the results were robust z-score, siRNA alone 0.726; viability, knock-down alone (DMSO) (fraction of control) = 1. For CDK10, the values are robust z-score, siRNA alone -1.23; viability, knock-down alone (DMSO) (fraction of control) = 0.824. After knock-down of PRKY, the screen gave robust z-score, siRNA alone -0.51; viability, knock-down alone (DMSO) (fraction of control) = 0.888.

MAP3K10 gave robust z-score, siRNA alone 0.726; viability, knock-down alone (DMSO) (fraction of control) = 1. SYK gave robust z-score, siRNA alone -1.01; viability, knock-down alone (DMSO) (fraction of control) = 0.843. Silencing of CDKL4 came out at: robust z-score, siRNA alone -0.279; viability, knock-down alone (DMSO) (fraction of control) = 0.909. XYLB gave robust z-score, siRNA alone 0.726; viability, knock-down alone (DMSO) (fraction of control) = 1.

Not a retest: 4 of the entries above.
PRKY | robust z-score, siRNA alone = -0.51; viability, knock-down alone (DMSO) (fraction of control) = 0.888
MAP3K10 | robust z-score, siRNA alone = 0.726; viability, knock-down alone (DMSO) (fraction of control) = 1
SYK | robust z-score, siRNA alone = -1.01; viability, knock-down alone (DMSO) (fraction of control) = 0.843
CDKL4 | robust z-score, siRNA alone = -0.279; viability, knock-down alone (DMSO) (fraction of control) = 0.909
